No constants are given. Whether binding was seen depends on the method and setting. In cells and extracts the contact can be indirect. These calls come from enrichment with a bait or labelling near it, and not all partners need be listed.
Molecular target: NDC80–GFP (Plasmodium berghei)
Experiment: affinity purification with mass spectrometry; GFP-Trap_A beads on formaldehyde-crosslinked (1%, 10 min) lysates of NDC80–GFP or GFP-only schizonts (8 h in culture) and gametocytes (1 min post-activation); on-bead trypsin digest, LC-MS/MS

B1: PBANKA_1442300, candidate SPC24 orthologue (protein, UniProt A0A509B0W6 1-819)
chain: MNYFSGKPKTKATELNNENKGVKFLNRAKNNFNGINKNTTNTQFSSFGQKNTLIRNTNFKLRTNNNTFKPPPRGIIKSSQNALHKNAQIDSNKQSHNELRNGSKNVSLANTRSIENNSNNNTTKPYLNRPIIHTNIKKYVSDDNNVMKNTNKNNIKNNRNSRFYNSENNEMNNNKDDNINNSESILYTYTSPIKRKYEAVNNTNQNTENDNNKMNTLNKKYAQRNYYFDNNLPTYYNNKVNNENSNSNNINENANNYNNFYSNEKLFNNNNTLDVSYITFKTGSNIDAANEVNINNNANNSIKSHSLARNYDKQKNGDNILNNSNCEPNYKYYYLEQNGQHNLDIHINKNLYTNDNPKNGNCNNLPYHLNSNILRSKEIRESKYLADTHSEKMMNSTNNNDVFNTCTIDRLSEENFNSYVKRKSHNKNTFSGINNLDDITRNHMTDNNNNNNRNESNNSKNFHNLNMDNEDNQLKNITNNQDTSLKNSIIGSNIVDFKNISMVIPISEGNLLSHKSENGSVKNRRSSSHNNMNANSVHTFQDDASYFNKYRDMNNMQQYIKKNDNRNKKIMNRYNIDTYINNDNDYLYFRNIINNITKYNSGESDIDDLCKTVMNINDYSLNFDGENEGINEIIDITNNVNNNIINIQQAIYNKKKIVQDKRNVINEEYEIISQKLKDCESIFCDTNDETGEKKLKVFYEIDEKKNILKNKYQVKKMLLKKAQYKIDKLQEYTDAIKLKTMAISKKYKRTYLLIEELFRLKIIKDNENELEICLIPKNTETNMWHRLQLDKKEITPEACDYLWSQIESFVDKETFDNYF
Which binding does the source give for B1 here?
The binding was “binds”.
